The supplement of paper PMC10689618
Counter-ions that a name gives are not always drawn. The list shows a part of the results. Many values rest on one well or one pass, so single values are uncertain.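 Primary human fetal astrocytes engulfed labelled rat cortical synaptosomes, measured as a red/green ratio corrected for calcein live-cell signal and scaled to the plate median. Toxicity meant calcein falling over 30%; decreased phagocytosis meant below 70% of median above 5 µM.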

Tests used:
Details in all cases: 24 h
[1] = tested on: Human fetal astrocytes; test: loss of total cells relative to no-compound high-control median (toxicity); higher = more toxic (fewer cells)
[2] = tested on: Human fetal astrocytes; test: as above; remark: listed apart in the source
[3] = tested on: Human fetal astrocytes; test: synaptosome phagocytosis (pHrodo/calcein intensity ratio) relative to plate median of data wells; higher = more phagocytosis
[4] = tested on: Human fetal astrocytes; test: as above; remark: listed apart in the source

Row | Structure (SMILES) | loss of total cells ([1]; 1.39 µM) | loss of total cells ([1]; 2.78 µM) | loss of total cells ([1]; 5.56 µM) | loss of total cells ([1]; 11.11 µM) | loss of total cells ([1]; 22.22 µM) | loss of total cells ([2]; 1.39 µM) | loss of total cells ([2]; 2.78 µM) | loss of total cells ([2]; 5.56 µM) | loss of total cells ([2]; 11.11 µM) | loss of total cells ([2]; 22.22 µM) | synaptosome phagocytosis ([3]; 1.39 µM) | synaptosome phagocytosis ([3]; 2.78 µM) | synaptosome phagocytosis ([3]; 5.56 µM) | synaptosome phagocytosis ([3]; 11.11 µM) | synaptosome phagocytosis ([3]; 22.22 µM) | synaptosome phagocytosis ([4]; 1.39 µM) | synaptosome phagocytosis ([4]; 2.78 µM) | synaptosome phagocytosis ([4]; 5.56 µM) | synaptosome phagocytosis ([4]; 11.11 µM) | synaptosome phagocytosis ([4]; 22.22 µM)
1 | CC(C)(C)NCC(O)c1ccccc1Cl (stereo not given) [Tulobuterol hydrochloride] | -30.7% | -21.3% | -9% | 4.2% | -22.2% | 22.7% | 14.1% | 21% | 16.3% | 16.7% | 109% | 109% | 93.3% | 90.8% | 112% | 73.3% | 72% | 101% | 91.7% | 77.9%
2 | COc1ccc2c(c1OC)C(=O)OC2C1c2cc3c(cc2CCN1C)OCO3 (single isomer, unassigned; (+)) [(+)-Hydrastine] | -8.8% | -29.1% | 0% | 4% | 2.4% | 14.5% | -12.5% | -11.8% | 4.3% | -39.8% | 109% | 99.8% | 84.5% | 109% | 83.4% | 120% | 98.5% | 80.6% | 137% | 118%
3 | NCC(CC(=O)O)c1ccc(Cl)cc1 (racemic) [(±)-Baclofen] | 0% | -3.6% | 7.8% | -17.5% | -4.1% | -10% | 10.1% | 9.3% | 7% | 5.1% | 102% | 110% | 120% | 128% | 117% | 118% | 134% | 109% | 128% | 127%
4 | O=c1[nH]c2ccccc2n1C1CCN(CCCC(c2ccc(F)cc2)c2ccc(F)cc2)CC1 [Pimozide] | -25.1% | 5.9% | -5.2% | 26.7% | 29% | -39% | -0.3% | 1.5% | 25% | -3.4% | 59.6% | 49.3% | 45.6% | 24.2% | 48.7% | 101% | 92.6% | 84.2% | 52.4% | 112%
5 | CC(C)c1cccc(C(C)C)c1O [Propofol] | -13% | 9.4% | -4.1% | -1.3% | -12.8% | -9.1% | -5.8% | 8.1% | 0.8% | 8.5% | 109% | 105% | 109% | 113% | 88.5% | 99.5% | 91.1% | 98.3% | 122% | 91.9%
6 | O=C(O)Cc1cnc[nH]1 [Imidazole-4-acetic acid hydrochloride] | -3.8% | -12.8% | -4.1% | -13.9% | -5.6% | -1.1% | 16.2% | 24.6% | 1.3% | 14.4% | 108% | 92.4% | 72.1% | 92.1% | 152% | 117% | 115% | 110% | 106% | 137%
7 | C=C(C)[C@H]1Cc2c(ccc3c2O[C@@H]2COc4cc(OC)c(OC)cc4[C@@H]2C3=O)O1 [Rotenone] | 2.2% | 9.9% | 18% | 34.9% | 23.9% | 13.4% | 27.9% | 5.3% | 32.3% | 33.7% | 52% | 85% | 63% | 81.5% | 56.4% | 72.5% | 89.7% | 70.4% | 87.6% | 68.5%
8 | O=c1c2ccccc2[se]n1-c1ccccc1 [Ebselen] | 10.5% | 9.4% | 10.7% | -1.3% | 38.4% | 1.8% | 17.7% | 19.6% | -4.6% | 20.5% | 67.7% | 72.3% | 110% | 101% | 120% | 129% | 104% | 113% | 102% | 59.5%
9 | Cc1nccc2c1[nH]c1ccccc12 [Harmane] | -4.6% | -12% | 9.1% | -0.4% | 2.4% | -10.7% | -17.7% | 8.8% | 16.9% | 1.5% | 122% | 87.1% | 98.2% | 107% | 111% | 117% | 151% | 102% | 112% | 106%
10 | OC1CCCCC1N1CCC(c2ccccc2)CC1 (racemic) [(±)-Vesamicol hydrochloride] | -28.3% | -20.1% | -1.7% | -26.4% | -26.3% | -17.8% | 6.6% | -3.8% | 47.1% | 7.8% | 85.6% | 50.6% | 102% | 137% | 101% | 92.1% | 104% | 91% | 99.8% | 120%
11 | NCCc1c[nH]c2ccc(O)cc12 [Serotonin hydrochloride] | 0.4% | -12.8% | 0.8% | -5.8% | -6.4% | -19.7% | -14.8% | -13.9% | 10.1% | 23.7% | 81.2% | 104% | 97.9% | 75.9% | 103% | 89.1% | 111% | 98.7% | 115% | 96.7%
12 | NCCc1c[nH]c2ccccc12 [Tryptamine hydrochloride] | -0.7% | -0.3% | -17.1% | -3.1% | 4.9% | -14.8% | 4.7% | -18.3% | 15.5% | 31.9% | 98.3% | 66.8% | 99.1% | 85.6% | 76.4% | 118% | 150% | 92.2% | 113% | 80.9%
13 | C[N+](C)(C)CCCCCCCCCC[N+](C)(C)C [Decamethonium dibromide] | -7.9% | -7.7% | -1.6% | -11.2% | 3.2% | -11.2% | 1.3% | -25.2% | 44.5% | -3.3% | 86.2% | 73.9% | 70.9% | 145% | 90.2% | 116% | 106% | 119% | 130% | 102%
14 | C[N+]1(C)[C@@H]2CC(OC(=O)[C@H](CO)c3ccccc3)C[C@H]1[C@@H]1O[C@@H]12 (single isomer, unassigned; (-)) [(-)-Scopolamine methyl nitrate] | -23.3% | -29.6% | -19.1% | -21.1% | -36.2% | -9.1% | -4.6% | 6.3% | -23.4% | -5.1% | 67% | 77.7% | 93% | 79.2% | 92.2% | 99.1% | 100% | 94.8% | 129% | 115%
15 | COc1ccc(C(=O)N2CCCC2=O)cc1 [Aniracetam] | -8.1% | -17.1% | -27.2% | -31.8% | 10.2% | 5.4% | 12% | -16% | 32.3% | 4.8% | 63.9% | 103% | 51.7% | 128% | 70.4% | 122% | 104% | 133% | 85.8% | 120%
16 | COc1cc2c(c(OC)c1OC)-c1ccc(OC)c(=O)cc1[C@@H](NC(C)=O)CC2 [Colchicine] | 1.1% | 2.1% | 6% | 1.3% | 14.7% | 22.8% | 25.4% | 20.9% | 36% | 55.6% | 92.1% | 113% | 97.3% | 104% | 132% | 91% | 126% | 78.7% | 72.6% | 87.7%
17 | C[C@@H]1O[C@@H](O[C@H]2CC[C@]3(C=O)[C@H]4CC[C@]5(C)[C@@H](C6=CC(=O)OC6)CC[C@]5(O)[C@@H]4CC[C@]3(O)C2)[C@H](O)[C@H](O)[C@H]1O | – | – | – | – | – | – | – | – | – | – | 58.3% | 38.4% | 41.8% | 32.8% | 15% | – | – | – | – | –
18 | c1ccc2nc(N3CCNCC3)ccc2c1 [Quipazine dimaleate] | -11.5% | -17.1% | -3.9% | -14.2% | -18.9% | -44.4% | -46% | -3.7% | 1% | -16.5% | 86% | 118% | 131% | 82.7% | 91.5% | 104% | 89.9% | 92.7% | 115% | 91.2%
19 | O=C(O)CC[N+](=O)[O-] [3-Nitropropionic acid] | 7.1% | 6.8% | -4.2% | -1% | 22.4% | -0.8% | 15.5% | 21.2% | 6.8% | 17% | 98.2% | 110% | 144% | 84.6% | 102% | 97.4% | 110% | 87% | 122% | 115%
20 | Cc1ncc(CNC(=O)N(CCCl)N=O)c(N)n1 [Nimustine hydrochloride] | -14.7% | 1.4% | 3.3% | 12.4% | 4.7% | 0.4% | 9% | -1.4% | 8.8% | -3% | 127% | 113% | 119% | 97% | 115% | 108% | 94.3% | 98.4% | 112% | 135%
21 | CS(=N)(=O)CC[C@H](N)C(=O)O (stereo partly drawn) [L-Methionine sulfoximine] | -11.8% | 5.9% | 8% | 1% | 1.9% | 1.8% | -11.2% | -6.5% | -24.7% | 0% | 69.4% | 93.1% | 63% | 71.5% | 66% | 84.2% | 95.5% | 104% | 56.8% | 123%
22 | NCC(O)c1ccc(O)cc1 (racemic) [(±)-Octopamine hydrochloride] | -5.2% | -1.4% | 4.2% | -24.8% | -12.1% | 3.2% | 12.6% | 5.8% | 7.9% | 11.4% | 126% | 140% | 88.5% | 112% | 95.9% | 119% | 104% | 129% | 99.1% | 142%
23 | COC(=O)C1=CCCN(C)C1 [Arecoline hydrobromide] | -18.7% | -28.3% | -14.3% | -15.7% | -5.6% | 6.8% | -15.9% | 2.1% | -3.7% | 19.1% | 97.4% | 114% | 119% | 95% | 111% | 99% | 70.9% | 86.5% | 88.8% | 100%
24 | CN1C[C@H](C(=O)N[C@]2(C)O[C@@]3(O)[C@@H]4CCCN4C(=O)[C@H](Cc4ccccc4)N3C2=O)C[C@@H]2c3cccc4[nH]cc(c34)C[C@H]21 [Dihydroergotamine methanesulfonate] | 15.5% | 0% | 6.6% | 6.7% | 4% | 8.6% | -11.2% | -8.4% | -5.5% | -8.2% | 98.8% | 95.4% | 119% | 90% | 84.1% | 128% | 87.6% | 94.6% | 129% | 85.8%
25 | CC(CCc1ccccc1)NC(C)C(O)c1ccc(O)cc1 (stereo not given) [Nylidrin hydrochloride] | -1.4% | -6.8% | 8.9% | 31.4% | 13.1% | -4.1% | -11.9% | 18.3% | 7% | 23.8% | 96.1% | 91.9% | 94.8% | 107% | 115% | 96.1% | 80.4% | 70.3% | 63.5% | 85.8%

Copied from the list:
NCCc1c[nH]c2ccc(O)cc12 [Serotonin hydrochloride] – loss of total cells ([1]; 1.39 µM): 0.4%
COc1cc2c(c(OC)c1OC)-c1ccc(OC)c(=O)cc1[C@@H](NC(C)=O)CC2 [Colchicine] – synaptosome phagocytosis ([3]; 2.78 µM): 113%
